{"source": "paper PMC12510028", "about": "“A biophysical and molecular characterization of the interaction between the Alzheimer risk factor BIN1 and the neuronal scaffold protein p140Cap” (The Journal of Biological Chemistry, 2025)", "key": {"[1]": {"biological_target": "GST-tagged BIN1-SH3 domain MutA (D23N/D25N/E26Q) (human)", "assay": "pull-down; 25 μg GST or GST-BSH3 (WT or mutant) on glutathione-Sepharose with 0.5 mg of 1% Triton X-100 soluble mouse brain homogenate, 2 h at room temperature; washes with 50 mM KCl, 150 mM NaCl, 1.5% IGEPAL; immunoblot for p140Cap and total tau; only the target purified"}, "[2]": {"biological_target": "GST-tagged BIN1-SH3 domain MutB (E44Q/E45Q/D47N/E48Q) (human)", "assay": "pull-down; 25 μg GST or GST-BSH3 (WT or mutant) on glutathione-Sepharose with 0.5 mg of 1% Triton X-100 soluble mouse brain homogenate, 2 h at room temperature; washes with 50 mM KCl, 150 mM NaCl, 1.5% IGEPAL; immunoblot for p140Cap and total tau; only the target purified"}}, "note": "Results are given in words; binding and its absence hold for the method and conditions named. In cells and extracts the contact can be indirect. Binding can be weak; no strength is given.", "data": [{"binder": "p140Cap from mouse brain (protein, UniProt Q9QWI6 1-1250) MQPWQCLRRFALAWWERTAEGRARSPREEVGPRDPGGRGEPDPERSSPPMLSADDAEYPREYRTLGGGGGGGSGGRRFSNVGLVHTSERRHTVIAAQSLEALSGLQKADADRKRDAFMDHLKSKYPQHALALRGQQDRMREQVGGWTVDPVCLLSSLCSHLHGDSTPSGAGQPAQQPNYWSFKTRSSRHTQGAQPGLADQAAKLSYASAESLETMSEAELPLGFSRMNRFRQSLPLSRSASQTKLRSPGVLFLQFGEETRRVHITHEVSSLDTLHALIAHMFPQKLTMGMLKSPNTAILIKDEARNVFYELEDVRDIQDRSIIKIYRKEPLYAAFPGSHLTNGDLRREMVYASRESSPTRRLNNLSPASHLASSSPPPGLPSGLPSGLPSGSPSRSRLSYAGGRPPSYAGSPVHHAAERLGGAPTGQGVSPSPSAILERRDVKPDEDLAGKAGGMVLVKGEGLYADPYGLLHEGRLSLAAAAETHSHTRARAACTSGVPCALSAPTPLPRCSPTWRTRCTRRALAALYGDGYGFRLPPSSPQKLADVSAPSGGPPPPHSPYSGPPSRGSPVRQSFRKDSGSSSVFAESPGGKARSTGSASTAGAPPSELFPGPGERSLVGFGPPVPAKDTETRERMEAMEKQIASLTGLVQSALLRGSEPETPSEKVEGSNGAATPSAPVCGSGSKSSGATPVSGPPPPSASSTPAGQPTAVSRLQMQLHLRGLQNSASDLRGQLQQLRNVQLQNQESVRALLKPTEADVSMRVSEAARRQEDPLQRQRTLVEEERLRYLNDEELITQQLNDLEKSVEKIQRDVAHNHRLMPGPELEEKALVLKQLGETLTELKAHFPGLQSKMRVVLRVEVEAVKFLKEEPQRLDGLLKRCRGVTDTLAQIRRQVDEGMWPPPNNLLNQSPKKVAAETDFSKGLDFEIPPPSPPLNLHELSGPAEGTPLTPKSTNPTKCLDASSKRNTDKAVSVEAAERDWEEKRAALTQYSAKDINRLLEETQAELLKAIPDLDCASKTHPGPAPTPDHKPPKAPHGQKAAPRTEPSGRRGSDELTVPRYRTEKPSKSPPPPPPRRSFPSSHGLTTTRTGEVVVTSKKDSVFIKKAESEELEVQKPQVKLRRAVSEVVRPASTPPIMASAIKDEDDEERIIAELESGGSSVPPMKVVTPGASRLKAAQGPAGSPDKGKHGKQRTEYMRIQAQQQATKPSKEVSGPNETSSPGSEKPSGSRTSIPVLTSFGARNSSISF", "values": [{"measurement": "binding", "setting": "[1]", "result": "binds"}, {"measurement": "binding", "setting": "[2]", "result": "binds"}]}]}
